Library screen at single concentrations

Amino acid sequences for entries named in this document (tags omitted).
UniProt P9WNZ1, whole entry: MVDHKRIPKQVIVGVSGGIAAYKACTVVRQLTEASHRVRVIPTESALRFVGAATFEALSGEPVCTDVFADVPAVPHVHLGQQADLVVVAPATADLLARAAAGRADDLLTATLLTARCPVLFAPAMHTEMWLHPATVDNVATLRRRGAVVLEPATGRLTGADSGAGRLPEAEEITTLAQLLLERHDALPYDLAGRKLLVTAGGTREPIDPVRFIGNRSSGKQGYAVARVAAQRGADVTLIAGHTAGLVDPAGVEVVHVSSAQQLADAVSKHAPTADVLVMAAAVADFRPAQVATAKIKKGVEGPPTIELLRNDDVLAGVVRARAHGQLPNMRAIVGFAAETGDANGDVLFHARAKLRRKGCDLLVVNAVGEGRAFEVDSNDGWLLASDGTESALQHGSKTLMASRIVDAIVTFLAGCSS

Each number is a percent effect as filed. How 0% and 100% were set is not recorded. Most values in the screen are low, and negative values occur. The compounds are a random part of those screened. A dash means the value is not listed here; it may have been measured.

A: 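Assay of Toxoplasma gondii numbers, read through their beta-galactosidase reporter with a colour substrate. Tested at 10 µM. Higher reads as fewer parasites (inferred from which compounds were picked for retests). Size under these conditions: about 67,000 compounds, about 260 of them at 50% or above in at least one test.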
B: 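Enzyme assay of CoaBC with a phosphate dye (Biomol Green) read at 650 nm. Target: Coenzyme A biosynthesis protein CoaBC, Mycobacterium tuberculosis (UniProt P9WNZ1). Concentration: 30 µM. Direction is inferred from only a few compounds that gave an IC50; most scored high, so higher reads as stronger inhibition. Most strong results did not repeat in a second test. Of about 67,000 compounds tested this way, about 40 (0.06%) reached 50% or more in at least one test.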

| structure | A | B |
|---|---|---|
| `Cc1cc(C)cc(Nc2nc(C)cc(=O)n2CC(=O)NC(C)C)c1` | 3.609 | -0.4843 |
| `COC(=O)C(NC(=O)CC(C)C)c1cc(F)ccc1F` (stereo not shown) | 5.34 | 5.018 |
| `CCCn1[nH]cc/c1=N\C(=O)CN1CCCC1Cn1cc(C)cn1` (stereo not shown) | -6.577 | 0.2484 |
| `CC(C)CN1C[C@@H](C(=O)O)C[C@@H](C(=O)NCc2ccncc2)C1` | -10.41 | 2.982 |
| `COCC(=O)N1CC[C@@H]2O[C@@H](COCC3CCOCC3)CC[C@@H]21` | - | -0.1626 |
| `COc1ccccc1C(=O)N1CCC(O)(c2cccc(C)c2C)CC1` | -5.277 | 0.4274 |
| `Cc1ccc2c(c1)CN(C(=O)c1cnc(C)cn1)C(CN(C)C)CO2.Cl` (stereo not shown) | 8.099 | - |
| `Cc1noc(C)c1CN1C[C@@H]2COC[C@@H](C(=O)N3CCCCO3)[C@@H]2C1` | - | 5 |
| `Cc1noc(C2CCN(C(C)c3nc(C4CC4)no3)CC2)n1` (stereo not shown) | 6.321 | 3.509 |
| `COc1ccccc1CC(=O)NC(CC(=O)O)c1ccc(F)cc1` (stereo not shown) | -5.718 | 16.12 |
| `Cc1nc(CN(C)Cc2nc(-c3sccc3C)oc2C)no1` | 7.557 | 3.856 |
| `c1ccc(CO[C@H]2CC[C@H]3[C@H]2OCCN3Cc2nccs2)nc1` | - | 0 |
| `O=C(O)C(F)(F)F.[H][C@@]12C[C@H](C(=O)N(C)C)CN(CCOc3ccc(Cl)cc3)[C@]1([H])CCO2` | 3.263 | - |
| `CCOc1nnc(CN2CCC(N(C)Cc3noc(C)n3)C2)s1` (stereo not shown) | -3.453 | 1.169 |
| `O=C(NC1CCN(CC2CCCC2)C1)N1CCC(OCC2CC2)CC1` (stereo not shown) | -0.6627 | -3.125 |
| `O=C(O)c1cc2n(n1)CCCN(C(=O)CCc1c[nH]c3ccccc13)C2` | -27.26 | -2.609 |
| `COCCN1CCC2(CC1)CC(NC(=O)CC1CC1)c1ccccc1O2.O=C(O)C(F)(F)F` (stereo not shown) | -11.5 | - |
| `CCOCCN1CCC=C(C2c3nc[nH]c3CCN2C(C)=O)C1` (stereo not shown) | -37.89 | 3.247 |
| `O=C(c1cccnc1)N1CCOC(CCCc2ccccc2)C1` (stereo not shown) | 1.971 | 9.761 |
| `O=C(O)C(F)(F)F.O=C(O)C(F)(F)F.c1coc(CN2CCCn3c(CN4CCOCC4)nnc3C2)c1` | 5.239 | - |
| `CN(C)C(=O)COCC1CN(Cc2cccs2)Cc2ncn(C)c21.O=C(O)C(F)(F)F.O=C(O)C(F)(F)F` (stereo not shown) | 17.6 | - |
| `O=C(NCCNC(=O)c1scnc1Cl)c1cccs1` | 6.506 | -1.828 |
| `O=C(O)C(F)(F)F.O=C(O)C(F)(F)F.[H][C@@]12CCN(Cc3cccc(C)n3)[C@@]1([H])CCN2C(=O)Cc1cccs1` | -10.04 | - |
| `C[C@@H]1CN(C2CCOC2)C[C@]12CCN(Cc1cccnc1)C2=O` (stereo partly shown) | - | 2.463 |
| `O=C(N[C@@H]1CN(Cc2ccc3[nH]ccc3c2)C[C@H]1O)c1cscn1` | 5.085 | 0.7282 |
| `Cc1ccc(N2CCC(c3[nH]ncc3Cc3ccccc3)CC2)nn1` | 10.78 | 11.35 |
| `O=C(O)C(F)(F)F.[H][C@@]12CN(CC3CC3)C[C@]1([H])[C@@H](OC)CCN2C(=O)c1ccsc1` | -10.76 | - |
| `O=C(c1cccs1)N1CCc2c(nc(N3CCCCC3)[nH]c2=O)C1` | 2.773 | 1.471 |
| `CC(=O)N1CCN(C(=O)CCOc2ccc(C(C)C)cc2)CC1` | -6.775 | 3.723 |
| `CC(C)C1C(=O)NCCN1C(=O)CCCc1nc(C(C)(C)C)no1` (stereo not shown) | -0.07841 | 7.239 |
| `COC(=O)c1cccc(NS(=O)(=O)c2cnc(NC(C)=O)s2)c1` | -3.347 | 13.59 |
| `O=c1[nH][nH]cc1-c1ccnc(NCCc2ccc(F)cc2)n1` | 27.64 | 3.494 |
| `COCCNc1nc2c(c(NCc3cnc(C)c(C)c3)n1)CCNCC2` | -8.992 | -42.18 |
| `CCOCCCNC(=O)CN(c1ccc(F)c(F)c1)S(C)(=O)=O` | 1.535 | -5.526 |
| `Cc1cnn(CCNCC(=O)Nc2ccc(Cl)cn2)c1` | -11.25 | -4.95 |
| `CC(C)(C)CN1CCCC2(CCN(C(=O)c3cn[nH]c3)C2)C1` (stereo not shown) | -10.33 | 0.9662 |
| `Cc1noc(C)c1CNC(=O)N1CCC(NS(C)(=O)=O)CC1` | -2.843 | 1.576 |
| `O=C(N1CCN(c2ccccc2O)CC1)C1(O)Cc2ccccc2C1` | -11.13 | -4.781 |
| `CC(CNC(=O)c1cccc(C#N)c1)N1CCc2ccccc21` (stereo not shown) | -6.833 | 3.371 |
| `N#Cc1c(Cl)nsc1N1CCN(CC2CC2)CC1` | 0 | 1.38 |
| `Cn1cccc1C(=O)N1CCn2cc(CNC(=O)CC3CC3)nc2C1` | 0.6101 | 3.886 |
| `CCc1ncc2c(n1)CN(Cc1nnc(CC)o1)CC2` | 20.4 | 1.921 |
| `COc1cccc(COCC(=O)N2CCCC(c3ccn[nH]3)C2)c1` (stereo not shown) | 3.738 | 12.22 |
| `CN(CCC(F)(F)F)C(=O)C1CSCN1C(=O)C(C)(C)C` (stereo not shown) | 0.8907 | 2.945 |
| `O=C(c1cc(F)cc2[nH]cnc12)N1CCCCC1Cn1cccn1` (stereo not shown) | 6.591 | 13.23 |
| `O=C(C1CC(=O)N(C2CC2)C1)N1CCN(CCn2cccc2)CC1` (stereo not shown) | -7.333 | -4.234 |
| `COCCN1CC[C@]2(CN(Cc3ccccn3)C[C@H]2C)C1=O.O=C(O)C(F)(F)F.O=C(O)C(F)(F)F` | -4.908 | - |
| `CS(=O)(=O)CCN1CCCC1c1noc(C2CC2)n1` (stereo not shown) | 19.8 | -0.7874 |
| `Cc1ccccc1-n1cnnc1SCC1CCCCO1` (stereo not shown) | 8.394 | -1.085 |
| `CC(C)NC(=O)N[C@H]1C[C@@H](Cc2cc(CN3CCOCC3)on2)C1(C)C` | 6.897 | 3.226 |
| `COc1cccc(CNC(=O)C(C)n2ccnc2C(C)C)c1OC` (stereo not shown) | -8.347 | 7.081 |
| `COc1ccc(-c2cnc(N(C)C)nc2C2CN(C(C)=O)CCO2)cc1` (stereo not shown) | 3.597 | 12.24 |
| `O=C(O)C(F)(F)F.[H][C@@]12CCCO[C@]1([H])[C@H](NC(=O)c1cnn(C)c1)CN2Cc1ccc(F)cc1` | 6.648 | - |
| `Cc1cc(C)c2[nH]c(C(=O)NCCN3CCNC3=O)c(C)c2c1` | 2.342 | -0.3774 |
| `CC(C)c1nc(C2CCCN(C(=O)CN3CCCNC3=O)C2)no1` (stereo not shown) | 8.742 | 2.532 |
| `COc1cc(OC)cc(C2CCN(CC(=O)NCC(F)(F)F)C2)c1` (stereo not shown) | 1.23 | 3.34 |
| `Cc1nn(C)c2c(=O)n(CC(=O)NCc3ccc(N(C)C)cc3)ccc12` | 18.87 | -3.511 |
| `CCC1=N[C@@]2(CC[C@@H]3CN(S(=O)(=O)CC(C)C)C[C@@H]32)C(=O)N1CC1CC1` | - | -1.895 |
| `Cc1cccnc1[C@H](C)Nc1nc(-c2cccnc2)nc2c1CNC2` | 19.42 | - |
| `O=S(=O)(NCC1COCc2c(-c3ccncc3)nnn2C1)C1CC1` (stereo not shown) | - | -16.43 |

The first 5 entries again:

Cc1cc(C)cc(Nc2nc(C)cc(=O)n2CC(=O)NC(C)C)c1 gave A: 3.609%; B: -0.4843%.
COC(=O)C(NC(=O)CC(C)C)c1cc(F)ccc1F (stereo not shown) gave A: 5.34%; B: 5.018%.
CCCn1[nH]cc/c1=N\C(=O)CN1CCCC1Cn1cc(C)cn1 (stereo not shown) gave A: -6.577%; B: 0.2484%.
CC(C)CN1C[C@@H](C(=O)O)C[C@@H](C(=O)NCc2ccncc2)C1 gave A: -10.41%; B: 2.982%.
COCC(=O)N1CC[C@@H]2O[C@@H](COCC3CCOCC3)CC[C@@H]21 gave B: -0.1626%.

From ChEMBL document CHEMBL3988442, “University of Dundee, Small-Polar-MMV Screening Library” (2021).